Assay results from article PMC4059965.
No constants are given. Whether binding was seen depends on the method and setting. In cells and extracts the contact can be indirect. Some entries that bind do so weakly or less than the wild type. One block for each substance: values may come before it.

Chains of the proteins cited; added tags and fusions are not shown.
UniProt Q9NQU5: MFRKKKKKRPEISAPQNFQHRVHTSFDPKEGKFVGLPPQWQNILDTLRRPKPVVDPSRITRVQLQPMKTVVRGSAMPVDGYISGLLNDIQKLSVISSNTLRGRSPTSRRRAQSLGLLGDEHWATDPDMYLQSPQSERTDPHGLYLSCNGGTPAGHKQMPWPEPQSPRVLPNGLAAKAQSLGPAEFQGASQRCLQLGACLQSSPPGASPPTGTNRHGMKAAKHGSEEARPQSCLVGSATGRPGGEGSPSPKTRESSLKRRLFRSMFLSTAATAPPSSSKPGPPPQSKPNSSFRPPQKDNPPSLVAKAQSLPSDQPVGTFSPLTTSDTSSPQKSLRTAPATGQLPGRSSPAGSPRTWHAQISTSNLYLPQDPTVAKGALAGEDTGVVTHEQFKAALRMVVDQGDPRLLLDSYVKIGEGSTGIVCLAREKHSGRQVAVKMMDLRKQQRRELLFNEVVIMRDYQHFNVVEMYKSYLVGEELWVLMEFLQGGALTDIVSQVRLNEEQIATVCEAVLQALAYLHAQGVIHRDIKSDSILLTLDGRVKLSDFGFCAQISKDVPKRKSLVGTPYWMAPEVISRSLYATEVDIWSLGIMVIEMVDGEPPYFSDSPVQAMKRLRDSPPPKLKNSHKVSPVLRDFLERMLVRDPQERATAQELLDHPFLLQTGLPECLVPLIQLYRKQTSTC
UniProt P46940: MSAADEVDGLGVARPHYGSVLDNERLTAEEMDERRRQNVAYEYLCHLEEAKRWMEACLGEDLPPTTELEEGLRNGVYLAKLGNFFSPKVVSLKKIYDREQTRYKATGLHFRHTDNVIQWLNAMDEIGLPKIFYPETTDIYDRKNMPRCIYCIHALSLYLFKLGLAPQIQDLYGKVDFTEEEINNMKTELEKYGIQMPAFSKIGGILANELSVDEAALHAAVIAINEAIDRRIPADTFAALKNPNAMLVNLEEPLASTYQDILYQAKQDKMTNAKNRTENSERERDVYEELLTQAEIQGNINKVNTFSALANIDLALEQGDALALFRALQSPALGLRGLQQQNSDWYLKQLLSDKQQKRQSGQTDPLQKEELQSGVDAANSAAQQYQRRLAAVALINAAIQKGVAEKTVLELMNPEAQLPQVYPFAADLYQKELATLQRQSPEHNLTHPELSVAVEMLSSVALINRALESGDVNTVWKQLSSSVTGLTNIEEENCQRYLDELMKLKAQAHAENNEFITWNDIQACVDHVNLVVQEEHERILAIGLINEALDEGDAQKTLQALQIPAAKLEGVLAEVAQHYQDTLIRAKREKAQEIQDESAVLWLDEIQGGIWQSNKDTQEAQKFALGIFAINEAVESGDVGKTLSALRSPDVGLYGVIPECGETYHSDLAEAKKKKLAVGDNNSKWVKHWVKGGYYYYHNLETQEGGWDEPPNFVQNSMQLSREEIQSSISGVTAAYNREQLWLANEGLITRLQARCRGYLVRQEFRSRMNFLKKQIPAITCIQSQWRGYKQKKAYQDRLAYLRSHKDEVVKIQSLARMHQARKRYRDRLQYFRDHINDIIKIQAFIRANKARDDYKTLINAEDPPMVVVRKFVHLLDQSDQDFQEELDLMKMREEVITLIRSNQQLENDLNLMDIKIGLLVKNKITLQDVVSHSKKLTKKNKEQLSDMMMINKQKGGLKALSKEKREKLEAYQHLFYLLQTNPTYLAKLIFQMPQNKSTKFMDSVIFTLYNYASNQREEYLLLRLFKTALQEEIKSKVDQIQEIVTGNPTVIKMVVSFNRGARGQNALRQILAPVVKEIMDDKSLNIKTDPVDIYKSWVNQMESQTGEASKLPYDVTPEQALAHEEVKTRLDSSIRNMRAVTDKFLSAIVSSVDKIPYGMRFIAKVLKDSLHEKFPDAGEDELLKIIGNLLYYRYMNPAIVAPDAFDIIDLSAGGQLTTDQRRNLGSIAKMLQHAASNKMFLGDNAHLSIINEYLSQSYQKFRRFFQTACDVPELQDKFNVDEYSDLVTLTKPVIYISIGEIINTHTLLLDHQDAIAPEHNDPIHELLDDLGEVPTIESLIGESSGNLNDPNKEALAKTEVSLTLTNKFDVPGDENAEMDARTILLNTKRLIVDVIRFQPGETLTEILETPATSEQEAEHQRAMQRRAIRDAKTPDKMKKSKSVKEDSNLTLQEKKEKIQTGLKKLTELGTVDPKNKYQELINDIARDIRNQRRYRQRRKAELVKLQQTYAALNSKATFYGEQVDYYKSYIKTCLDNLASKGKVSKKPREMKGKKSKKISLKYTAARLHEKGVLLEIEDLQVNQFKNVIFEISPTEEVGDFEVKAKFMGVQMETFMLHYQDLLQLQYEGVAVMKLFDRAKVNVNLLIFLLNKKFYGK
UniProt P35222: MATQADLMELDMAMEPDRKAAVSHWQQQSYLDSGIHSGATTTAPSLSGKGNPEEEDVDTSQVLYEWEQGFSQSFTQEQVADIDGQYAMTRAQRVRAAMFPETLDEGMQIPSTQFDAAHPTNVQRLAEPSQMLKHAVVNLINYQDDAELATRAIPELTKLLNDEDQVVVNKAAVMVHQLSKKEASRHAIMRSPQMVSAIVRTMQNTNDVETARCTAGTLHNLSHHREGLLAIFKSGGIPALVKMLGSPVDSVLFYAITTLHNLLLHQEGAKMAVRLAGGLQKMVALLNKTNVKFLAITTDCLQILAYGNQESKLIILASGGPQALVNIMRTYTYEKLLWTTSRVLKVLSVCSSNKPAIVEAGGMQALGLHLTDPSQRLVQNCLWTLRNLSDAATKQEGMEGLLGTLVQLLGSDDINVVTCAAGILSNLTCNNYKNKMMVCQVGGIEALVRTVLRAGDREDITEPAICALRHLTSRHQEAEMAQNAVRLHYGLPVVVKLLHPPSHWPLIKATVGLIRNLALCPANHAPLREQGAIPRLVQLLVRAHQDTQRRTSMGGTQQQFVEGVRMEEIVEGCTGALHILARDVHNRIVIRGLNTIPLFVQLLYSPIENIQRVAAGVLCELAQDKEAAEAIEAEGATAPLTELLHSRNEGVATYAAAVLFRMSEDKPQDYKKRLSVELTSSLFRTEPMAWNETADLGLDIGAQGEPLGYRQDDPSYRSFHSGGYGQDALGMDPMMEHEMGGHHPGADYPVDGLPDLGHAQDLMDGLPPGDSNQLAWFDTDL

Key:
Myc-PAK6^wt (human) = Myc-PAK6^wt (human) (UniProt Q9NQU5); experiment: co-IP; HEK293 cells transfected; lysates pre-cleared, primary antibody (anti-GFP or anti-c-Myc) overnight at 4 °C, protein A or G Sepharose, washed three times with lysis buffer, immunoblot
IQGAP1-GFP^wt = IQGAP1-GFP^wt (UniProt P46940); experiment: as above
GST-PAK6 (human) = GST-PAK6 (human) (UniProt Q9NQU5); experiment: pull-down; GST-PAK6 on glutathione Sepharose beads with DU145 cell lysates (serum-starved or stimulated with HGF 250 ng/ml, 4 h or 8 h), NP-40 lysis buffer, 2 h at 4 °C, immunoblot for the endogenous proteins; only the target purified

binding (Myc-PAK6^wt (human)): binds
Substance: GFP-β-catenin^wt (from UniProt P35222 1-781)

binding (IQGAP1-GFP^wt): binds
Substance: endogenous PAK6 (HEK293) (from UniProt Q9NQU5 1-681)

binding (GST-PAK6 (human)): binds
Substance: endogenous IQGAP1 (DU145) (from UniProt P46940 1-1657)
